Laboratory results from PMC6946680, “Modulation of brain cation-Cl^− cotransport via the SPAK kinase inhibitor ZT-1a” (Nature Communications, 2020).
Several values for one entry are separate records, joined by “and”; a condition that tells them apart may be missing. Equal values may be shown once.

Experiments:
[1] = tested on: KCC3; test: 86Rb+ uptake assay for KCC3 activity in HEK-293 cells; assay type: cell-based, human; parameters: key to 86Rb+ uptake: 86Rb+ uptake CPM normalized per mg protein (10-min uptake); details: for 86Rb+ uptake: Fig 3a, KCC3 wt + Furo (1 mM), replicates
[2] = tested on: HEK-293 cells; test: 86Rb+ uptake assay in empty-vector-transfected HEK-293 cells; assay type: cell-based, human; parameters: key: 86Rb+ uptake in CPM per mg protein; details: Fig 3a, Empty V + Furo (1 mM), ouabain + bumetanide, replicates

## NS(=O)(=O)c1cc(C(=O)O)c(NCc2ccco2)cc1Cl [furosemide, reference compound]
[1]; 1 mM furosemide, n = 3
  K+ flux (86Rb+ uptake) of cells transfected with empty vector or KCC3 wt cDNA: significantly decreased K^+ flux
[1]; Hypotonic low Cl-
  86Rb+ uptake: 497.9 and 459.2 and 631.9 and 539.1 and 604.9 and 546.4
[1]; Isotonic control
  86Rb+ uptake: 873.2 and 629.5 and 994.7 and 699.2 and 901.5 and 768.9
[2]; Hypotonic low Cl-
  86Rb+ uptake: 189.8 and 174.8 and 155.2 and 147.3 and 136.5 and 163.3
[2]; Isotonic control
  86Rb+ uptake: 234.2 and 198.6 and 207.4 and 167.8 and 253.1 and 208.5
